This is one part of the list. The main result of the screen is listed elsewhere. These columns were measured beside it and carry no call. Most of these compounds were active or inconclusive in the main read-out, so they are no random draw. The note in brackets gives the kind of curve behind each potency; many fits are weak.
Assay: qHTS Assay for Modulators of Lamin A Splicing
Conditions: HeLa LMNA splicing GFP/RFP minigene ratio, 48 h
Outline: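 Read-out is the ratio of GFP to DsRed2 object intensity, acquired by 488 nm laser-scanning cytometry on HeLa lamin A-EGFP minigene reporter cells. Compound incubation 48 hrs at 37 °C in Opti-MEM with 2% FBS; DMSO 0.5% final.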

[1] = measured here: GFP splicing reporter channel
[2] = measured here: RFP viability control channel

SMILES	AC50 [1]	AC50 [2]
O=C(CN1CCCCC1)Nc1ccc(N2CCCCCC2)cc1	1.12 µM [rising, partial curve]	–
CCc1cnc2c(c1SCC(=O)NCc1ccc(C)cc1)c(=O)n(C)c(=O)n2C	0.0158 µM [falling, full curve, poor fit]	–
CCSC1=NCCN1C(=O)c1c(-c2ccccc2Cl)noc1C	0.0282 µM [falling, full curve, poor fit]	–
CCOc1c(Br)cc(/C=N\NC(=O)c2ccccc2)cc1OC	1.12 µM [rising, full curve, poor fit]	17.8 µM [rising, partial curve, poor fit]
CCCN(CC(=O)Nc1cc(Cl)ccc1Cl)C(=O)/C=C/c1ccco1	–	14.1 µM [rising, single point]
Cc1cc(S(=O)(=O)Nc2ccc(C(=O)N3CCN(C(=O)c4ccco4)CC3)cc2)ccc1F	–	11.2 µM [rising, single point]
COC(=O)c1cc(NC(=O)CN(c2ccccc2OC)S(=O)(=O)c2ccccc2)ccc1Cl	35.5 µM [rising, single point]	31.6 µM [rising, single point]
Clc1ccc(CN2CCc3nc(N4CCN(c5ccccn5)CC4)ncc3C2)cc1	0.0251 µM [falling, full curve, poor fit]	0.0316 µM [falling, full curve, poor fit]
CCc1ccccc1N1C(=O)c2ccccc2S1(=O)=O	17.8 µM [rising, single point]	35.5 µM [rising, single point]
Cc1c(C(=O)Nc2nc3ccccc3[nH]2)oc2ccc(Br)cc12	–	22.4 µM [rising, partial curve, poor fit]
CCOC(=O)c1cc(-c2ccccc2)n(CCCC(=O)Nc2cccc(C)c2)c1C	–	35.5 µM [rising, single point]
Cc1cc(Oc2ccccc2)nc(SCC(=O)Nc2ccccc2)n1	–	10 µM [rising, partial curve]
O=C(CCc1ccccc1)Nc1ccncc1	–	11.2 µM [rising, single point]
CC(/C=N/NC(=O)NC1CCCCC1)=C\c1ccccc1	12.6 µM [falling, single point]	22.4 µM [falling, single point]
CC(C)CC(=O)NCC(c1ccc2c(c1)OCO2)N1CCN(c2ccc(F)cc2)CC1 (configuration not stated)	–	0.0447 µM [falling, full curve, poor fit]
CCOC(=O)c1cc(-c2ccc(N3CCOCC3)cc2)nn1-c1ccc(F)cc1F	8.91 µM [rising, partial curve, poor fit]	22.4 µM [rising, single point]
CCOC(=O)C1CCN(C(=O)c2cc3cc(Br)ccc3oc2=O)CC1	7.08 µM [falling, partial curve, poor fit]	–
O=C(c1cccs1)c1cn(CC(=O)N2CCc3ccccc3C2)c2ccccc12	–	11.2 µM [rising, single point]
CCOc1ccc(S(=O)(=O)NCc2ccc3c(c2)CCN3C(=O)c2ccc(C)cc2)cc1	11.2 µM [falling, partial curve]	12.6 µM [falling, partial curve]

Grouped by structure: the compounds so far containing sulfur (eight)
SMILES	AC50 [1]	AC50 [2]
CCc1cnc2c(c1SCC(=O)NCc1ccc(C)cc1)c(=O)n(C)c(=O)n2C	0.0158 µM [falling, full curve, poor fit]	–
CCSC1=NCCN1C(=O)c1c(-c2ccccc2Cl)noc1C	0.0282 µM [falling, full curve, poor fit]	–
Cc1cc(S(=O)(=O)Nc2ccc(C(=O)N3CCN(C(=O)c4ccco4)CC3)cc2)ccc1F	–	11.2 µM [rising, single point]
COC(=O)c1cc(NC(=O)CN(c2ccccc2OC)S(=O)(=O)c2ccccc2)ccc1Cl	35.5 µM [rising, single point]	31.6 µM [rising, single point]
CCc1ccccc1N1C(=O)c2ccccc2S1(=O)=O	17.8 µM [rising, single point]	35.5 µM [rising, single point]
Cc1cc(Oc2ccccc2)nc(SCC(=O)Nc2ccccc2)n1	–	10 µM [rising, partial curve]
O=C(c1cccs1)c1cn(CC(=O)N2CCc3ccccc3C2)c2ccccc12	–	11.2 µM [rising, single point]
CCOc1ccc(S(=O)(=O)NCc2ccc3c(c2)CCN3C(=O)c2ccc(C)cc2)cc1	11.2 µM [falling, partial curve]	12.6 µM [falling, partial curve]

The listing continues:

SMILES	AC50 [1]	AC50 [2]
CCn1ccc2cc(S(=O)(=O)N3CCC(C(=O)NCC(C)c4ccccc4)CC3)ccc21 (configuration not stated)	35.5 µM [falling, single point]	3.16 µM [falling, partial curve, poor fit]
Cc1ccc(-n2ncc(C(=O)NCc3ccccn3)c2C2CCN(C(=O)OC(C)(C)C)CC2)cc1C	0.00316 µM [falling, full curve, poor fit]	–
CC(=O)Nc1ccc(SCC(=O)Nc2ccccc2Oc2ccccc2)cc1	–	31.6 µM [rising, single point]
O=C(Nc1ccncc1)C1CCCN(S(=O)(=O)c2cccc3cccnc23)C1 (configuration not stated)	–	2.51 µM [rising, full curve]
CN(C(=O)/C=C/c1ccc([N+](=O)[O-])s1)c1ccccc1	–	35.5 µM [falling, single point]
COc1ccccc1C1C(C(C)=O)=C(O)C(=O)N1CCc1ccccc1 (configuration not stated)	–	35.5 µM [rising, single point]
CC(C)CC(=O)Nc1ccc2c(c1)OCO2	–	1.78 µM [falling, full curve, poor fit]
O=C(Nc1ccc(C(F)(F)F)cc1)c1cc(S(=O)(=O)N2CCCc3ccccc32)ccc1F	0.0178 µM [falling, full curve, poor fit]	–
O=C(CN1CCC(n2nnc3cc(F)ccc32)CC1)NC1CCCCC1	14.1 µM [rising, partial curve, poor fit]	–
COc1ccc(Br)cc1/C=C/C(=O)Nc1ccc2ccccc2c1	–	10 µM [rising, partial curve, poor fit]
COc1ccc(Nc2ncc3c(n2)CCN(Cc2cccc(F)c2F)C3)c(OC)c1	0.0794 µM [falling, full curve, poor fit]	–
CCNc1ncc2nc(C)c(=O)n(CCc3ccccc3)c2n1	17.8 µM [falling, single point]	–
NC(=O)NC(CC(=O)NCCCc1ccccc1)c1ccccc1Cl (configuration not stated)	–	0.0794 µM [rising, full curve, poor fit]
CCN1CCC(N(Cc2ccc3c(c2)OCO3)C(=O)Nc2cccc(C)c2C)CC1	–	0.1 µM [rising, partial curve]
CC(=O)N(c1ccc(Cl)cc1)c1c[nH]c2ccccc12	–	8.91 µM [rising, partial curve]
O=[N+]([O-])c1cc(S(=O)(=O)Nc2ccccc2)ccc1NCc1ccccc1	12.6 µM [rising, single point]	17.8 µM [rising, partial curve]
CCN(CC)S(=O)(=O)c1ccc(Cl)c(C(=O)NCc2ccccc2Cl)c1	–	25.1 µM [rising, single point]
CCOC(=O)c1c(-c2ccc(C)o2)csc1NC(=O)CSc1nnnn1-c1ccccc1	11.2 µM [rising, partial curve]	12.6 µM [rising, partial curve]
